These results are taken from article PMC5346764.

By UniProt entry, the sequences of proteins in these tests, tags left out.
UniProt O43663: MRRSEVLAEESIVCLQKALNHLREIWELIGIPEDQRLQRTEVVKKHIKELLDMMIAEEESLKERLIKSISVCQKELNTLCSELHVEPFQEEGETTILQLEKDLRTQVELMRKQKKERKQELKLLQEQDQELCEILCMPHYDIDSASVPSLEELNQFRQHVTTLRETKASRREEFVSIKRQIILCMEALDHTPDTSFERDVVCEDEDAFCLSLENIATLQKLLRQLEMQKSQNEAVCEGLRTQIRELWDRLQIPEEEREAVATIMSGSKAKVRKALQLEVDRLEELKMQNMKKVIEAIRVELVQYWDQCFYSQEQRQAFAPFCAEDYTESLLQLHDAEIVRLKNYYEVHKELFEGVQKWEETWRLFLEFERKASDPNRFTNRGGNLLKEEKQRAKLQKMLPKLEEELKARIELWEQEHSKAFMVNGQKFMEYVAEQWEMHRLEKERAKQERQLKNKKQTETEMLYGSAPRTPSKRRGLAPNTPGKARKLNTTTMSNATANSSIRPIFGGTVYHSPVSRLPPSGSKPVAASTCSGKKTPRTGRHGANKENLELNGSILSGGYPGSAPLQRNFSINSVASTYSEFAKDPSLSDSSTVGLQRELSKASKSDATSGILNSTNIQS
UniProt Q02224: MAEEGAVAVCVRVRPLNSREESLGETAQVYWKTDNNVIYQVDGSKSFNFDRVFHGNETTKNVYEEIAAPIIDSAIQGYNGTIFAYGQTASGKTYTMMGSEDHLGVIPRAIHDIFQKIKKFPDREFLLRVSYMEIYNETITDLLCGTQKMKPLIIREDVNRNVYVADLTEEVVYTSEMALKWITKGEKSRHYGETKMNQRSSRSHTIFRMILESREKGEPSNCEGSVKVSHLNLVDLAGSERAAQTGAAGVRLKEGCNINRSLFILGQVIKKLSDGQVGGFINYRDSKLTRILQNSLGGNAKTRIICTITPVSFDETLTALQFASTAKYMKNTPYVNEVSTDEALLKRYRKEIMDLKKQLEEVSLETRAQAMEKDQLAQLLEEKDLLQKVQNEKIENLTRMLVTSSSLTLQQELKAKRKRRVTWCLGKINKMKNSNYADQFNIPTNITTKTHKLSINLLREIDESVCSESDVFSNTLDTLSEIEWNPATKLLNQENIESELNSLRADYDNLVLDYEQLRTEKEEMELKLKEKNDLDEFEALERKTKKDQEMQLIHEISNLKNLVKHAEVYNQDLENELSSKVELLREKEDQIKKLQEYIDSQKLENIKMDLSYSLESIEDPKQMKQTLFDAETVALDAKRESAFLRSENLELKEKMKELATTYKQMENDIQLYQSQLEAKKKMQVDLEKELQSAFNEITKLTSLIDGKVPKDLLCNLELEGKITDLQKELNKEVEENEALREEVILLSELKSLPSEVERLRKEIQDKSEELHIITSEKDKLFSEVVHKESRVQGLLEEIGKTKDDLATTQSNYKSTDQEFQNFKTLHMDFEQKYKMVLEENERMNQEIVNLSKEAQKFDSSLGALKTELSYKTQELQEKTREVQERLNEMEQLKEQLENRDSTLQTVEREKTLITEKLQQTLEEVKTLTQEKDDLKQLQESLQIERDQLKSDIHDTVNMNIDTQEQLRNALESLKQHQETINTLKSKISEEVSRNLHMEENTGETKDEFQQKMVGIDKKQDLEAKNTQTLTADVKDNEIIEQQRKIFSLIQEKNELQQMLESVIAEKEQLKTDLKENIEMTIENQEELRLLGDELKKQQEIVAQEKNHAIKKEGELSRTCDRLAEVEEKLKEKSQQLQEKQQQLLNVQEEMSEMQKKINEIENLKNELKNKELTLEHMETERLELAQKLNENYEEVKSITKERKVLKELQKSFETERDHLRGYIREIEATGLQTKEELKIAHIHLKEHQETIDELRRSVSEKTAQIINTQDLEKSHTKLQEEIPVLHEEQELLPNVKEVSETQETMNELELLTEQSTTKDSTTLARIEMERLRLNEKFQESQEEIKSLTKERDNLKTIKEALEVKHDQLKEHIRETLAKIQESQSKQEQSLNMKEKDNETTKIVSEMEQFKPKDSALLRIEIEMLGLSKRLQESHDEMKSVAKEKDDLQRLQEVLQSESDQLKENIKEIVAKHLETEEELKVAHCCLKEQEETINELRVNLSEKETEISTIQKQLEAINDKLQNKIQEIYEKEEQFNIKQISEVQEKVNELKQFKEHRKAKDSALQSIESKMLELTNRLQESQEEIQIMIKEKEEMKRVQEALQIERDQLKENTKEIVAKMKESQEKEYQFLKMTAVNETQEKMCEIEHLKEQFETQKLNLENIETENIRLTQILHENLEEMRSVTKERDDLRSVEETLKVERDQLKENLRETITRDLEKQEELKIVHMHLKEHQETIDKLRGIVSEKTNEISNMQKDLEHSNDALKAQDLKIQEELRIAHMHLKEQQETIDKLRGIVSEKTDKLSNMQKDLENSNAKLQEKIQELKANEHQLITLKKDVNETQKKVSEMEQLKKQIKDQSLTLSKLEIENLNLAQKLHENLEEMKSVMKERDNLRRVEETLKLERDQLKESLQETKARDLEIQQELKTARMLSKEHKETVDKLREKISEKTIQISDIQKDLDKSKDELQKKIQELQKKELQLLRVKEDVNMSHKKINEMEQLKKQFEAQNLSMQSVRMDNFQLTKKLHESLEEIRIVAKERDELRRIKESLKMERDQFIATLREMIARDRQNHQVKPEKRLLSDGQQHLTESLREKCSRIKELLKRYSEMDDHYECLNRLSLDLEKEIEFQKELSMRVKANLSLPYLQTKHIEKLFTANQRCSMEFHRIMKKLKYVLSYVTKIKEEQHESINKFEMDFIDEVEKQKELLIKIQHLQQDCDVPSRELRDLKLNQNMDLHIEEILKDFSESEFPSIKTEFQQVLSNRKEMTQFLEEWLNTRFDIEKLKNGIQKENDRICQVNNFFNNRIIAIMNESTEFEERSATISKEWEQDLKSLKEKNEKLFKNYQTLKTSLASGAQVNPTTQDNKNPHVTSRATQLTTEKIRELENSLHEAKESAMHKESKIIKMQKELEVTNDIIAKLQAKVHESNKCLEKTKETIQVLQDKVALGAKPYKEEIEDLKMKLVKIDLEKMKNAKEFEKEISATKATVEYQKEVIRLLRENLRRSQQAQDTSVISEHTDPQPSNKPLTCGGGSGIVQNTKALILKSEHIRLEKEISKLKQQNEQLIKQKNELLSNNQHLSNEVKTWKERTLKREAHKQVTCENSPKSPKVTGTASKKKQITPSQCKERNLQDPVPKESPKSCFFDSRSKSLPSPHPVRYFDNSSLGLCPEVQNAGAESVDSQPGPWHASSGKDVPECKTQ

The target in the assay is recombinant GST-tagged full-length PRC1 (UniProt O43663). Description: pull-down; GST pull-down: GST-tagged PRC1 as bait, 293T cell lysate, with or without added microtubules; immunoblot with anti-CENP-E, anti-GST or anti-alpha-tubulin; only the target purified. A general note: In western blotting, separated proteins are transferred to a membrane and probed.

These are yes or no findings as the source states them, for the method shown. Binding seen in cells or lysates may run through a third protein. Some results given as binding are weak or reduced against the parent protein; the word gives no strength.

Take “endogenous centromere-associated protein-E (CENP-E) (from UniProt Q02224 1-2701)”: the binding entry is “binds”.
